Measurements published in publication PMC2848608.
These are yes or no findings as the source states them, for the method shown. Binding seen in cells or lysates may run through a third protein. Some results given as binding are weak or reduced against the parent protein; the word gives no strength.

Chains of the proteins cited; added tags and fusions are not shown.
UniProt P61073: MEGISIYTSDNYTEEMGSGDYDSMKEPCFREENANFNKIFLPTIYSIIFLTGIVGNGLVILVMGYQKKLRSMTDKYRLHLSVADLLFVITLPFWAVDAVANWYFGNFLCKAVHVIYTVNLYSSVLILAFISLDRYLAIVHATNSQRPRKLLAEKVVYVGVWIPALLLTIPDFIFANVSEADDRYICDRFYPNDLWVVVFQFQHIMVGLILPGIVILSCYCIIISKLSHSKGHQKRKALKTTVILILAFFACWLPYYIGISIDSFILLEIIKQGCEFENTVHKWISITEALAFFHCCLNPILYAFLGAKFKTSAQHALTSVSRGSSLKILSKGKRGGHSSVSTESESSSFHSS

Target: CXCR4 (human) (human (endogenous in human tumor cells)) (UniProt P61073)
Assay: pull-down; unpublished observation (Southgate et al unpublished); pulldown and reciprocal western analyses in non-ionic detergent solubilized lysates of human tumor cells

B1: 5T4 oncofetal glycoprotein (human) (protein, UniProt Q13641 32-420)
chain: SSPTSSASSFSSSAPFLASAVSAQPPLPDQCPALCECSEAARTVKCVNRNLTEVPTDLPAYVRNLFLTGNQLAVLPAGAFARRPPLAELAALNLSGSRLDEVRAGAFEHLPSLRQLDLSHNPLADLSPFAFSGSNASVSAPSPLVELILNHIVPPEDERQNRSFEGMVVAALLAGRALQGLRRLELASNHFLYLPRDVLAQLPSLRHLDLSNNSLVSLTYVSFRNLTHLESLHLEDNALKVLHNGTLAELQGLPHIRVFLDNNPWVCDCHMADMVTWLKETEVVQGKDRLTCAYPEKMRNRVLLELNSADLDCDPILPPSLQTSYVFLGIVLALIGAIFLLVLYLNRKGIKKWMHNIRDACRDHMEGYHYRYEINADPRLTNLSSNSDV
binding: binds
